Results published in patent US10994018B2, “Long-acting palmitic acid-conjugated GnRH derivative, and pharmaceutical composition containing same” (priority 2017, dated 2021).
Part of at least one peptide drawing is inferred or uncertain, most often the ends. Where a SMILES comes first, the peptide text is derived from it. [ ]: non-standard residue; d: D form. The star is where a group is joined. Palmitoyl = CCCCCCCCCCCCCCCC(=O)*

Key:
[1] = test system: prostate cancer cell line DU-145; assay: Cell death assay (Cell Counting Kit-8) on prostate cancer cells; type: cell-based; settings: DU-145 cells
Experimental: GnRH derivatives are clinically applied to the treatment of diseases including breast cancer, prostate cancer, endometriosis, central precocious puberty, and the like. The DU-145 cell line, which is a type of prostate cancer cells, was cultured in T75 flasks containing an adequate amount of RPIM 1640 culture medium (containing 10% FBS, penicillin/streptomycin, and 1% non-essential amino acids) in a sterile incubator having 5% CO2/95% air at 37° C. Cell death assay was performed using the Cell Counting Kit-8 (CCK-8, manufactured by DOJINDO). The […] cells were separated from the T75 flasks by trypsinization treatment and transferred to 96-well plates at a density of 1×10^4 cells/well, followed by incubation for one hour for attachment. Subsequently, the cells were treated with various concentrations of GnRH or GnRH derivatives, and control reagents. Specifically, 1% DMSO was used as a negative control for cell death while 0.1% SDS served as a positive control. After 48 hours of incubation, the existing culture medium was removed, and 100 μL of fresh culture medium and 10 μL of CCK-8 solution were applied to each well. Again, after 48 hours of incubation, the medium solution was replaced by 100 μL of fresh culture medium and 10 μL of CCK-8 solution. The cells were incubated for 4 hours, and then the absorbance was measured at 450 nm to assess cell viability.

[2] = Blood concentration and pharmacokinetics after single subcutaneous administration to rats (LC/MSMS); type: in vivo, female SD rats; settings: rat, s.c. once 12.5 mg/kg
Experimental: Before administration and at 0.5, 1, 2, and 6 hours and on days 1, 3, 7, 10, 14, 21, and 28 after administration, blood samples were taken from the tail vein of the rats and measured for the blood concentrations of Leuprolide and GnRH derivatives, using LC/MSMS. If the concentration reached about 4 ng/mL at a specific time point, no measurements were further made for the next time point. The measurement results are graphically depicted in FIGS. 4 to 6. Based on the results, pharmacokinetic analysis was carried out by calculating the half-life (t1/2), clearance rate (CL), volume of distribution (Vd), time to reach the maximum concentration following drug administration (Tmax), maximum concentration following drug administration (Cmax), and systemic exposure to drug (AUCt). The analysis results are as follows.

Row | Structure (SMILES) | cell death rate on prostate cancer cells [1] | Cmax (maximum concentration) [2] | t1/2 (half-life) [2]
1 | CC(C)C[C@H](NC(=O)CNC(=O)[C@H](Cc1ccc(O)cc1)NC(=O)[C@H](CO)NC(=O)[C@H](Cc1c[nH]c2ccccc12)NC(=O)[C@H](Cc1c[nH]cn1)NC(=O)[C@@H]1CCC(=O)N1)C(=O)N[C@@H](CCCNC(=N)N)C(=O)N1CCC[C@H]1C(=O)NCC(N)=O [GnRH] | about 10% |  | 
2 | CCCCCCCCCCCCCCCC(=O)N[C@@H](CCC(N)=O)C(=O)N[C@@H](Cc1c[nH]cn1)C(=O)N[C@@H](Cc1c[nH]c2ccccc12)C(=O)N[C@@H](CO)C(=O)N[C@@H](Cc1ccc(O)cc1)C(=O)N[C@H](CC(C)C)C(=O)N[C@@H](CC(C)C)C(=O)N[C@@H](CCCNC(=N)N)C(=O)N1CCC[C@H]1C(=O)NCC [Derivative P4, Palmitate-Gln-His-Trp-Ser-Tyr-DLeu-Leu-Arg-Pro-NHEt] (Palmitoyl-QHWSY[dL]LRP-NHEt) |  | 0.0457 µg/mL | 96.7 h
